Measurements published in PubChem BioAssay AID248 (DTP/NCI, 2004).
The list is a part of this screen's results and no random one: it gathers tests that were run many times, whatever their T/C, doses with no T/C, and many T/C values between a quarter and a half above the control. Other doses and runs of a compound stand elsewhere. T/C is the treated group as % of the vehicle group. Some doses have a count of surviving animals in place of a T/C: the source holds a T/C of zero for them, seemingly a mark for toxic or unscored doses. Some doses without a T/C left all or most animals alive at the check, yet need not have been tolerated: the source hardly ever lists a survival T/C far under the control, and the zero likely stands for such cases as well. Survivors were counted at the toxicity check, usually on the fifth day, unless a day is given; later deaths do not show. Schedule codes are those of the source, read here as Q, the interval in days (D) or hours (H), X, the number of doses. Some schedules carry Z or #; the key to these is not given. Where survival is the endpoint, this PubChem deposit counts one and a half times the control or more as active, and values a quarter to a half above the control carry no call in these data; other NCI protocols may use other cut-offs. Some T/C values are followed by the survivors on the day toxicity was checked, most often the fifth; without a count, all were alive then.

Tested on: L1210 leukemia ip in BDF1 mice, survival T/C
Assay: NCI In Vivo Anticancer Drug Screen. Data for tumor model L1210 Leukemia (intraperitoneal) in B6D2F1 (BDF1) mice
Settings: T/C endpoint: mean survival time, higher T/C = longer survival
[1] = dose: 100.0 mg/kg/injection, schedule: Q01DX009 (ip), vehicle: saline
[2] = dose: 200.0 mg/kg/injection, schedule: Q01DX009 (ip), vehicle: saline
[3] = dose: 400.0 mg/kg/injection, schedule: Q01DX009 (ip), vehicle: saline
[4] = dose: 300.0 mg/kg/injection, schedule: Q01DX001 (ip), vehicle: saline
[5] = dose: 400.0 mg/kg/injection, schedule: Q01DX001 (ip), vehicle: carboxymethylcellulose (CMC)
[6] = dose: 200.0 mg/kg/injection, schedule: Q01DX009 (ip), vehicle: Klucel (hydroxypropylcellulose) (HPC)
[7] = dose: 400.0 mg/kg/injection, schedule: Q04DX003 (ip), vehicle: Klucel (hydroxypropylcellulose) (HPC)
[8] = dose: 400.0 mg/kg/injection, schedule: Q04DX002 (ip), vehicle: Klucel (hydroxypropylcellulose) (HPC)
[9] = dose: 100.0 mg/kg/injection, schedule: Q01DX001 (ip), vehicle: saline
[10] = dose: 200.0 mg/kg/injection, schedule: Q01DX001 (ip), vehicle: saline
[11] = dose: 400.0 mg/kg/injection, schedule: Q01DX001 (ip), vehicle: saline
[12] = dose: 400.0 mg/kg/injection, schedule: Q04DX003 (ip), vehicle: saline
[13] = dose: 100.0 mg/kg/injection, schedule: Q01DX009 (ip), vehicle: Klucel (hydroxypropylcellulose) (HPC)

C=C(C)C1(O)C=CC(=O)O1 (stereo not given)
survivor count [1]: 1 of 6 | survivor count [2]: 0 of 6 | survivor count [3]: 0 of 6

COc1cccc(NC(=S)C(C#N)C(=O)Nc2cccc(C(F)(F)F)c2)c1 (stereo not given)
survivor count (dose: 200.0 mg/kg/injection, schedule: Q04DX002 (ip), vehicle: gum acacia): 0 of 3 | survivor count (dose: 400.0 mg/kg/injection, schedule: Q04DX002 (ip), vehicle: gum acacia): 0 of 3

CSC(CC(=O)O)C(=O)O (stereo not given)
survivor count [4]: 3 of 6

NC(=O)N/N=C1\CC2CCC1C2Cl (stereo not given)
survivor count (dose: 150.0 mg/kg/injection, schedule: Q01DX001 (ip), vehicle: saline): 2 of 6

NC(=S)N/N=C\c1ncnc2ccccc12
survivor count (dose: 10.8 mg/kg/injection, schedule: Q03HX032 (ip), vehicle: saline with Tween-80): 4 of 10 | T/C (dose: 12.5 mg/kg/injection, schedule: Q01DX009 (ip), vehicle: saline): 132 % of control | T/C (dose: 25.0 mg/kg/injection, schedule: Q01DX009 (ip), vehicle: saline): 130 % of control

COc1ccc(/C=C(\CCCOC(C)=O)[N+](=O)[O-])cc1OC
survivor count [5]: 1 of 4

CSc1cccc(Cl)c1
survivor count [4]: 3 of 6

Clc1ncnc2c1ncn2C1CCCO1 (stereo not given)
T/C (dose: 600.0 mg/kg/injection, schedule: Q01DX009 (ip), vehicle: saline): 146 % of control [5 of 6 alive]

O=C1NC(=O)N(c2ccc(Cl)cc2)C1=O
survivor count (dose: 400.0 mg/kg/injection, schedule: Q04DX002 (ip), vehicle: saline with Tween-80): 0 of 3

OCCN(CC1C(c2ccccc2)C1c1ccccc1)C1CCCCC1 (stereo not given)
survivor count (dose: 12.5 mg/kg/injection, schedule: Q04DX002 (ip), vehicle: Klucel (hydroxypropylcellulose) (HPC)): 3 of 3 | survivor count (dose: 25.0 mg/kg/injection, schedule: Q04DX002 (ip), vehicle: Klucel (hydroxypropylcellulose) (HPC)): 2 of 3

O=C(Cc1ccccc1)NC(CSSCC(NC(=O)Cc1ccccc1)C(=O)O)C(=O)O (stereo not given)
T/C [2]: 125 % of control

CN=C(c1ccc(NC(=O)c2ccc(C(=O)Nc3ccc(C(=NC)N(C)c4ccccc4)cc3)cc2)cc1)N(C)c1ccccc1
survivor count (dose: 7.5 mg/kg/injection, schedule: Q01DX Z (ip), vehicle: saline): 0 of 6 | survivor count (dose: 15.0 mg/kg/injection, schedule: Q01DX Z (ip), vehicle: other): 0 of 6 | survivor count (dose: 30.0 mg/kg/injection, schedule: Q01DX Z (ip), vehicle: other): 0 of 6 | survivor count (dose: 60.0 mg/kg/injection, schedule: Q01DX Z (ip), vehicle: other): 0 of 6 | survivor count (dose: 120.0 mg/kg/injection, schedule: Q01DX Z (ip), vehicle: other): 0 of 6

CCOC(=O)N1c2ccccc2C=CC1/C(N)=N/O (stereo not given)
survivor count [6]: 2 of 6 | survivor count [7]: 2 of 6

O=C1OCC/C1=C\c1ccccc1
survivor count [5]: 1 of 4

Cc1ccc(NC(=O)c2ccccc2)cc1
survivor count [8]: 1 of 3

CCCC(=O)N1CCCCC1C (stereo not given)
survivor count [8]: 0 of 3

CC1(C)N=C(N)N=C(N)N1c1ccc(OCC(=O)N2CCOCC2)c(Cl)c1
survivor count [2]: 4 of 6

CCC[CH2][Sn]([Cl])([CH2]CCC)[S]C(=S)NCCNC(=S)[S][Sn]([Cl])([CH2]CCC)[CH2]CCC
survivor count (dose: 50.0 mg/kg/injection, schedule: Q04DX002 (ip), vehicle: other): 0 of 3 | survivor count (dose: 100.0 mg/kg/injection, schedule: Q04DX002 (ip), vehicle: other): 0 of 3 | survivor count (dose: 200.0 mg/kg/injection, schedule: Q04DX002 (ip), vehicle: other): 0 of 3 | survivor count (dose: 400.0 mg/kg/injection, schedule: Q04DX002 (ip), vehicle: other): 0 of 3

O=C(CC(O)(C(F)(F)F)C(F)(F)F)c1ccc(Cl)c([N+](=O)[O-])c1
survivor count (dose: 300.0 mg/kg/injection, schedule: Q01DX009 (ip), vehicle: Klucel (hydroxypropylcellulose) (HPC)): 3 of 6

CC(=O)N(C)N=O
survivor count (dose: 50.0 mg/kg/injection, schedule: Q01DX001 (ip), vehicle: saline): 1 of 6 | survivor count [9]: 0 of 6 | survivor count [10]: 0 of 6 | survivor count [4]: 0 of 6 | survivor count [11]: 0 of 6 | survivor count (dose: 500.0 mg/kg/injection, schedule: Q01DX001 (ip), vehicle: saline): 0 of 6 | survivor count (dose: 600.0 mg/kg/injection, schedule: Q01DX001 (ip), vehicle: saline): 0 of 6 | survivor count (dose: 800.0 mg/kg/injection, schedule: Q01DX001 (ip), vehicle: saline): 1 of 6 | survivor count (dose: 1000.0 mg/kg/injection, schedule: Q01DX001 (ip), vehicle: saline): 0 of 6

O=C(O)c1ccc[n+]([O-])c1
survivor count (dose: 400.0 mg/kg/injection, schedule: Q04DX003 (ip), vehicle: saline with Tween-80): 2 of 3

CN(C)CCCN1c2ccccc2CCc2ccc(Cl)cc21
survivor count [1]: 1 of 6 | survivor count (dose: 100.0 mg/kg/injection, schedule: Q04DX003 (ip), vehicle: saline): 0 of 4 | survivor count [2]: 0 of 6 | survivor count (dose: 200.0 mg/kg/injection, schedule: Q04DX003 (ip), vehicle: saline): 0 of 4 | survivor count [3]: 0 of 6 | survivor count [12]: 0 of 4

Cc1ccc(-c2ccns2)cc1
survivor count (dose: 100.0 mg/kg/injection, schedule: Q01DX001 (ip), vehicle: carboxymethylcellulose (CMC)): 6 of 6 | survivor count (dose: 200.0 mg/kg/injection, schedule: Q01DX001 (ip), vehicle: carboxymethylcellulose (CMC)): 6 of 6

CCc1nc(N[N+](=O)[O-])nc(N)c1-c1ccccc1O
survivor count (dose: 200.0 mg/kg/injection, schedule: Q04DX002 (ip), vehicle: Klucel (hydroxypropylcellulose) (HPC)): 3 of 3

CN=C(NCCCOC)c1ccc(NC(=O)Nc2ccc(NC(=O)Nc3ccc(C(=NC)NCCCOC)cc3)cc2)cc1
survivor count (dose: 15.0 mg/kg/injection, schedule: Q01DX Z (ip), vehicle: carboxymethylcellulose (CMC)): 1 of 6 | survivor count (dose: 30.0 mg/kg/injection, schedule: Q01DX Z (ip), vehicle: carboxymethylcellulose (CMC)): 2 of 6 | survivor count (dose: 60.0 mg/kg/injection, schedule: Q01DX Z (ip), vehicle: carboxymethylcellulose (CMC)): 0 of 6 | survivor count (dose: 120.0 mg/kg/injection, schedule: Q01DX Z (ip), vehicle: carboxymethylcellulose (CMC)): 0 of 6

Clc1nc2nc(C(Cl)(Cl)Cl)[nH]c2nc1Cl
survivor count [13]: 5 of 6 | survivor count [6]: 2 of 6 | survivor count [7]: 0 of 6

O=S(=O)(CC12CC1(O)C1CCC2C1)c1ccccc1 (stereo not given)
survivor count [12]: 0 of 6

CCC(C)C(C)C(C)=O (stereo not given)
survivor count [11]: 2 of 4

C=CC(=O)O (tested in a mixture with another compound)
survivor count (dose: 200.0 mg/kg/injection, schedule: Q01DX Z (ip), vehicle: saline): 0 of 6

CC(=O)CC(=O)NCC(CCN1CCCCC1)(c1cccc2ccccc12)C(C)C (stereo not given)
survivor count [13]: 1 of 6

CC[CH2][Sn]([CH2]CC)[CH2]CC.CC[CH2][Sn]([CH2]CC)[CH2]CC
survivor count (dose: 50.0 mg/kg/injection, schedule: Q01DX009 (sc), vehicle: olive oil, sesame oil, peanut oil): 1 of 3 | survivor count (dose: 100.0 mg/kg/injection, schedule: Q04DX002 (sc), vehicle: olive oil, sesame oil, peanut oil): 1 of 3 | survivor count (dose: 200.0 mg/kg/injection, schedule: Q04DX002 (sc), vehicle: olive oil, sesame oil, peanut oil): 2 of 3 | survivor count (dose: 400.0 mg/kg/injection, schedule: Q04DX002 (sc), vehicle: olive oil, sesame oil, peanut oil): 0 of 3

CC(C)=CC1CC(C)C2(CCC3(C)CC4C(C(=O)CC4(C)O)/C(C=O)=C\CC32)O1 (stereo not given)
survivor count [9]: 0 of 6 | survivor count [10]: 0 of 6 | survivor count [11]: 0 of 6
